Data reported in PubChem BioAssay AID330 (DTP/NCI, 2004).
The list shows only some results of the screen, not a fair sample: it gathers tests that were run many times, whatever their T/C, doses with no T/C, and many T/C values between a quarter and a half above the control. Other doses and runs of a compound stand elsewhere. T/C: endpoint of the treated group in % of that of the vehicle group. Some doses have a count of surviving animals in place of a T/C: the source files T/C as zero there, which appears to mark a toxic dose or a test without result, not a measured value. Some survivor counts are full or nearly so, which does not show that the dose was tolerated: the source hardly ever lists a survival T/C far under the control, and the zero likely stands for such cases as well. Survivors were counted at the toxicity check, usually on the fifth day, unless a day is given; later deaths do not show. Schedule codes are those of the source, read here as Q, the interval in days (D) or hours (H), X, the number of doses. Some entries were tested several times; the values are given in rising order. Where survival is the endpoint, the PubChem record calls one and a half times the control and up active, and a quarter to a half above the control has no call in these data; cut-offs in other NCI protocols can differ. Some T/C values are followed by the survivors on the day toxicity was checked, most often the fifth; without a count, all were alive then.

System: P388 leukemia ip, CD2F1 mice, survival T/C
Experiment: NCI In Vivo Anticancer Drug Screen. Data for tumor model P388 Leukemia (intraperitoneal) in CD2F1 (CDF1) mice
Settings: T/C endpoint: median survival time, higher T/C = longer survival
[1] = dose: 100.0 mg/kg/injection, schedule: Q01DX009 (ip), vehicle: saline with Tween-80
[2] = dose: 200.0 mg/kg/injection, schedule: Q04DX003 (ip), vehicle: saline with Tween-80
[3] = dose: 400.0 mg/kg/injection, schedule: Q04DX003 (ip), vehicle: saline with Tween-80
[4] = dose: 12.5 mg/kg/injection, schedule: Q01DX009 (ip), vehicle: saline with Tween-80
[5] = dose: 25.0 mg/kg/injection, schedule: Q01DX009 (ip), vehicle: saline with Tween-80
[6] = dose: 50.0 mg/kg/injection, schedule: Q01DX009 (ip), vehicle: saline with Tween-80
[7] = dose: 100.0 mg/kg/injection, schedule: Q01DX009 (ip), vehicle: saline
[8] = dose: 200.0 mg/kg/injection, schedule: Q01DX009 (ip), vehicle: saline
[9] = dose: 400.0 mg/kg/injection, schedule: Q01DX009 (ip), vehicle: saline
[10] = dose: 50.0 mg/kg/injection, schedule: Q01DX005 (ip), vehicle: saline with Tween-80
[11] = dose: 12.5 mg/kg/injection, schedule: Q04DX003 (ip), vehicle: saline

CN(C)c1ccc2c3c(c(=O)oc2c1)CCC3
survivor count [1]: 6 of 6

CC(C)COP(=O)(OCC(C)C)OCC(C)C.CC(C)COP(=O)(OCC(C)C)OCC(C)C.CC(C)COP(=O)(OCC(C)C)OCC(C)C.CC(C)COP(=O)(OCC(C)C)OCC(C)C.O.O.[Co+2].[O-][Cl+3]([O-])([O-])O
survivor count [2]: 1 of 6
survivor count [3]: 0 of 6

CC1CC[N-]CC1.CC1CC[N-]CC1.CC1CC[N-]CC1.CC1CC[N-]CC1.[Cl][Rh][Cl]
survivor count [1]: 6 of 6

Cc1cc2cc3cc(C)c(N)cc3nc2cc1N
T/C [4]: 130 and 134 % of control
T/C [5]: 136 and 141 % of control
survivor count [6]: 6 of 6
survivor count [1]: 4 of 6
survivor count [7]: 6 of 6
survivor count [8]: 4 of 6
survivor count [9]: 0 of 6

O=C(CCN1C(=O)c2ccccc2C1=O)C(O)CCN1C(=O)c2ccccc2C1=O (stereo not given)
survivor count [10]: 6 of 6
survivor count (dose: 100.0 mg/kg/injection, schedule: Q01DX005 (ip), vehicle: saline with Tween-80): 6 of 6

N#C/C(C(=N)c1ccccc1)=C1\SS/C(=C(\C#N)C(=N)c2ccccc2)S1
survivor count [4]: 6 of 6

N/C(=N\OC(=O)Nc1ccc(CSc2ccc(Cl)cc2)o1)c1ccccn1
T/C (dose: 100.0 mg/kg/injection, schedule: Q01DX005 (ip), vehicle: Klucel (hydroxypropylcellulose) (HPC)): 126 % of control
survivor count (dose: 200.0 mg/kg/injection, schedule: Q01DX005 (ip), vehicle: Klucel (hydroxypropylcellulose) (HPC)): 4 of 6

COc1ccc2c(C)cc(N/N=C(\c3ccccc3)c3ccccn3)nc2c1
survivor count (dose: 12.5 mg/kg/injection, schedule: Q01DX005 (ip), vehicle: saline with Tween-80): 6 of 6
survivor count (dose: 25.0 mg/kg/injection, schedule: Q01DX005 (ip), vehicle: saline with Tween-80): 6 of 6
survivor count [10]: 6 of 6

O=C(OC1OC(COCc2ccccc2)C(OCc2ccccc2)C(OCc2ccccc2)C1OCc1ccccc1)c1ccc([N+](=O)[O-])cc1 (stereo not given)
survivor count (dose: 400.0 mg/kg/injection, schedule: Q01DX001 (ip), vehicle: saline with Tween-80): 6 of 6

CN(C)CC(CN(C)C)C(=O)/C=C/c1ccc(OCc2ccccc2)cc1
survivor count (dose: 25.0 mg/kg/injection, schedule: Q01DX005 (ip), vehicle: saline): 0 of 6
survivor count (dose: 50.0 mg/kg/injection, schedule: Q01DX005 (ip), vehicle: saline): 0 of 6
survivor count (dose: 100.0 mg/kg/injection, schedule: Q01DX005 (ip), vehicle: saline): 0 of 6
survivor count (dose: 200.0 mg/kg/injection, schedule: Q01DX005 (ip), vehicle: saline): 0 of 6

CCCCCCCCSc1nc2ccc(N=Cc3ccccc3O)cc2s1
survivor count (dose: 100.0 mg/kg/injection, schedule: Q01DX009 (ip), vehicle: Klucel (hydroxypropylcellulose) (HPC)): 6 of 6

CNC(=S)N/N=C(\C)c1ccccn1
survivor count [5]: 3 of 6
T/C [6]: 130 % of control [4 of 6 alive]
survivor count [6]: 0 of 6 and 3 of 6
survivor count [1]: 0 of 6 and 2 of 6
survivor count (dose: 200.0 mg/kg/injection, schedule: Q01DX009 (ip), vehicle: saline with Tween-80): 0 of 6

Cc1ccc(Cl)c(C(O)(C(F)(F)F)C(F)(F)F)c1
survivor count (dose: 400.0 mg/kg/injection, schedule: Q01DX001 (ip), vehicle: other): 4 of 6

O=C1C=C(NCC2CCCN3CCCCC23)C(=O)c2ccccc21 (stereo not given)
survivor count (dose: 378.5 mg/kg/injection, schedule: Q04DX002 (ip), vehicle: Klucel (hydroxypropylcellulose) (HPC)): 0 of 6

COC(=O)c1c(C(=O)OC)c(-c2cccc(Cl)c2)n2c1CCC2
survivor count [10]: 6 of 6

C[CH2][Sn]1([CH2]C)[O]C(=O)CC(=O)[O]1
T/C (dose: 6.25 mg/kg/injection, schedule: Q04DX003 (ip), vehicle: saline): 140 % of control
T/C [11]: 127 % of control
survivor count [11]: 3 of 6
survivor count (dose: 25.0 mg/kg/injection, schedule: Q04DX003 (ip), vehicle: saline): 0 of 6
survivor count (dose: 100.0 mg/kg/injection, schedule: Q04DX003 (ip), vehicle: saline): 0 of 6
survivor count (dose: 200.0 mg/kg/injection, schedule: Q04DX003 (ip), vehicle: saline): 0 of 6
survivor count (dose: 400.0 mg/kg/injection, schedule: Q04DX003 (ip), vehicle: saline): 0 of 6

N#Cc1ccc(NC(=O)Nc2nncs2)cc1
T/C (dose: 50.0 mg/kg/injection, schedule: Q01DX009 (ip), vehicle: distilled water + Tween-80): 130 and 131 % of control
T/C (dose: 100.0 mg/kg/injection, schedule: Q01DX009 (ip), vehicle: distilled water + Tween-80): 130 and 140 % of control
T/C (dose: 200.0 mg/kg/injection, schedule: Q01DX009 (ip), vehicle: distilled water + Tween-80): 146 % of control [4 of 6 alive]
survivor count (dose: 400.0 mg/kg/injection, schedule: Q01DX009 (ip), vehicle: distilled water + Tween-80): 0 of 6 and 3 of 6

Nc1nc(-c2ccccc2)cc2ccccc12
survivor count (dose: 100.0 mg/kg/injection, schedule: Q04DX003 (ip), vehicle: saline with Tween-80): 0 of 6
survivor count [2]: 0 of 6
survivor count [3]: 0 of 6

CC1CN1P(=O)(N1CCCCCC1)N1CC1C (stereo not given)
T/C (dose: 25.0 mg/kg/injection, schedule: Q01DX009 (ip), vehicle: saline): 127 % of control
T/C (dose: 44.0 mg/kg/injection, schedule: Q04DX003 (ip), vehicle: saline): 133 % of control
T/C (dose: 50.0 mg/kg/injection, schedule: Q04DX003 (ip), vehicle: saline): 133 % of control
T/C (dose: 66.0 mg/kg/injection, schedule: Q04DX003 (ip), vehicle: saline): 141 % of control
survivor count [7]: 6 of 6
survivor count (dose: 150.0 mg/kg/injection, schedule: Q04DX003 (ip), vehicle: saline): 6 of 6

C[n+]1[se]c2ccccc2c1Cl
survivor count (dose: 25.0 mg/kg/injection, schedule: Q01DX009 (ip), vehicle: Klucel (hydroxypropylcellulose) (HPC)): 4 of 6
survivor count (dose: 50.0 mg/kg/injection, schedule: Q01DX009 (ip), vehicle: Klucel (hydroxypropylcellulose) (HPC)): 0 of 6

COC(=O)CC(O)CCCCCCCCCCCCC(C)C (stereo not given)
survivor count (dose: 70.0 mg/kg/injection, schedule: Q01DX005 (ip), vehicle: Klucel + Tween-80): 6 of 6

Cc1cc2c(cc1C)NC(c1ccc(C(N)=S)cc1)N2
survivor count (dose: 400.0 mg/kg/injection, schedule: Q04DX002 (ip), vehicle: saline with Tween-80): 4 of 6

Cc1c(-c2nc(N)nc(C3CC3)c2C)nc(N)nc1C1CC1
survivor count (dose: 240.0 mg/kg/injection, schedule: Q01DX005 (ip), vehicle: saline): 3 of 6

Cc1ccc(NCCC2CCCN3CCCCC23)c2c(=O)c3ccccc3sc12 (stereo not given)
survivor count (dose: 50.0 mg/kg/injection, schedule: Q01DX005 (ip), vehicle: distilled water + Tween-80): 6 of 6
survivor count (dose: 100.0 mg/kg/injection, schedule: Q01DX005 (ip), vehicle: distilled water + Tween-80): 6 of 6
survivor count (dose: 200.0 mg/kg/injection, schedule: Q01DX005 (ip), vehicle: distilled water + Tween-80): 2 of 6

O=C(NC(Cc1ccccc1)C(=O)O)OCc1ccccc1 (stereo not given)
survivor count (dose: 600.0 mg/kg/injection, schedule: Q01DX009 (ip), vehicle: saline with Tween-80): 0 of 6

CCNC(=O)Oc1ccc[nH]c1=O
T/C [7]: 126 % of control
T/C [8]: 129 % of control
survivor count [9]: 1 of 6
T/C (dose: 400.0 mg/kg/injection, schedule: Q01DX009 (sc), vehicle: water): 125 % of control [5 of 6 alive]
survivor count (dose: 600.0 mg/kg/injection, schedule: Q01DX009 (ip), vehicle: saline): 0 of 6

COc1cc(OC)c(C(C)=O)c(OC)c1OC
survivor count (dose: 400.0 mg/kg/injection, schedule: Q01DX009 (ip), vehicle: saline with Tween-80): 3 of 6

CON(Cc1ccc(C(=O)NC(C)C)cc1)Cc1ccc(C(=O)NC(C)C)cc1
survivor count (dose: 12.5 mg/kg/injection, schedule: Q01DX009 (ip), vehicle: other): 6 of 6
survivor count (dose: 200.0 mg/kg/injection, schedule: Q01DX009 (ip), vehicle: other): 6 of 6
